The source of these data is article PMC6030205.

Amino acid sequences for entries named in this document (tags omitted).
UniProt P92978: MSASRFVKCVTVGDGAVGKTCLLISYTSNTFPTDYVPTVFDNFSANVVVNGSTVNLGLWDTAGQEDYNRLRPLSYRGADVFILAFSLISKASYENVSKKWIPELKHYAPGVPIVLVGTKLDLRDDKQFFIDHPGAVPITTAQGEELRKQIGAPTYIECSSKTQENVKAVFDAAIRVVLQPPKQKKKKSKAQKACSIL

The target of the assay is GFP-ROP1 (Arabidopsis) (UniProt P92978). The assay is described as follows: co-IP; total protein of Arabidopsis pollen tubes in NEB buffer (20 mM HEPES pH 7.5, 40 mM KCl, 1 mM EDTA, 1% Triton X-100); GFP-trap or RFP-trap agarose beads, 3 h at 4 C; endogenous REN4 detected by anti-REN4 immunoblot.

Results are given in words; binding and its absence hold for the method and conditions named. Binding seen in cells or lysates may run through a third protein. Some entries that bind do so weakly or less than the wild type.

B1: REN4 (ROP1 enhancer 4), endogenous (protein, UniProt O48716 1-465)
chain: MFTEADSIPRAKYANMMHSDPNLSSTMTQQTEEEYGIRNSSASAVGTGMYDRMSCEGSPMMMSPWNQATPFTQTQWSTVEENLPQNGLIGSLVREEGHIYSLAATKDLLYTGSDSKNIRVWKNLKEFSAFKCNSGLVKAIVISGEKIFTGHQDGKIRVWKVSPKNQSLHKRSGTLPTLKDIFKASLKPRNYVEVKKHRTALWIKHADAVSCLSLNDEQGLLYSASWDRTIKVWRIADSKCLESIPAHDDAVNSVVSTTEAIVFSGSADGTVKAWKRDQQGKYTKHTLMQTLTKQESAVTALAVSKNGAAVYFGSSDGLVNFWEREKQLNYGGILKGHKLAVLCLEVAGSLVFSGSADKTICVWKRDGNIHTCLSVLTGHTGPVKCLAVEADREASERRDKKWIVYSGSLDKSVKVWGVSESFIDMNQMSMMQQQQQQHVISHSEPFMSDGSFSSSAGGASSHRRH
As to B1, the binding result is listed as “binds”.
